Test results taken from PubChem BioAssay AID1671190 (National Center for Advancing Translational Sciences (NCATS), 2021).
The whole screen tested about 580,000 compounds, of which about 6,100 (1.1%) were called active. Inconclusive means that the source gave no clear call. Such entries were picked first, then a sample of the others. Calls come from the whole dose curve; as a rule, active = well fitted inhibition curve with a large enough effect; inconclusive = small, poorly fitted or top-dose-only effect, or another doubt; inactive = no such curve, though single readings can be large or run the other way. Potencies beside an inconclusive call are fits to weak or partial responses and may not hold up.

By UniProt entry, the sequences of proteins in these tests, tags left out. Where a name states a change or a piece, a line headed by the entry shows the natural chain unless it says otherwise.
UniProt P18054: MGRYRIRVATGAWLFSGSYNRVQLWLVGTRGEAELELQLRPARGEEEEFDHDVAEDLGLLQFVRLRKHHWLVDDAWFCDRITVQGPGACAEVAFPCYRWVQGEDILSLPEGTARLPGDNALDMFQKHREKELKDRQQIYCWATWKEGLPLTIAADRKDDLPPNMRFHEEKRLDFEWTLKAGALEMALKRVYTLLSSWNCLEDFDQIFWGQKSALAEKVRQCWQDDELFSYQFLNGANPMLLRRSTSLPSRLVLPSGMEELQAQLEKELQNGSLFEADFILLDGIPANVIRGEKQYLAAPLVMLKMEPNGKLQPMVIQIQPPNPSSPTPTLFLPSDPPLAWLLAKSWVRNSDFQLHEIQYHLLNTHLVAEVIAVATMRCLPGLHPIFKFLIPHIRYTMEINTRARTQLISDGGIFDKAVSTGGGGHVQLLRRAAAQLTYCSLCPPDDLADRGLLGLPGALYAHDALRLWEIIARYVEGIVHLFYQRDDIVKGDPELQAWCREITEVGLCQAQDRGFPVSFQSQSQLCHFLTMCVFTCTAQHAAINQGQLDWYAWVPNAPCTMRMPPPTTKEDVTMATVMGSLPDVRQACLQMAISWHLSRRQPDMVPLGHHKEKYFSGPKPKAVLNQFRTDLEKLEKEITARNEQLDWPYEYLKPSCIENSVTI

Each molecule was assayed against Polyunsaturated fatty acid lipoxygenase ALOX12 (Homo sapiens) (UniProt P18054) (assay: Primary qHTS assay for inhibitors of human arachidonate 12S-lipoxygenase (ALOX12): Round 2). Settings: purified 12hLO, xylenol orange hydroperoxide absorbance; activity change, negative = inhibition: at 108 µM (top of the series) unless noted.
Procedure, shortened: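 Purified human 12hLO at 150 nM in 25 mM Hepes, 0.01% Triton X-100, pH 7.0, preincubated 15 min at room temperature with compound. Reaction started with 40 uM arachidonic acid, 30 min at room temperature. Hydroperoxide measured by Fe-xylenol orange, 573/405 nm absorbance ratio.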
% is set by controls: 0 for no effect and ±100 for the full control effect; potency is the fitted concentration of half-maximal effect.

SMILES	Potency	activity change, negative = inhibition
O=C(/C=C/c1ccco1)OC(C(=O)c1ccccc1)C(=O)c1ccccc1	inconclusive: 35.5 µM [inhibitor, partial curve, poor fit]	
CC(C)N(CCCNC(=O)Nc1ccc(C(C)(C)C)cc1)C[C@H]1O[C@@H](n2cc(Br)c3c(N)ncnc32)[C@H](O)[C@H]1O	inactive	
O=C(NCCc1ccccc1Cl)[C@@H]1CCCN1C(=O)[C@@H](NS(=O)(=O)c1ccc(F)cc1F)c1ccccc1	inconclusive: 44.7 µM [inhibitor, partial curve, poor fit]	
OC(c1ccc2c(c1)OCO2)c1nccc2ccccc12 (stereo not given)	inconclusive: 1.78 µM [inhibitor, full curve, poor fit]	
CC(=O)N1CCC(N[C@H]2CC(C)(C)[C@@H]3C[C@@](C)(O)CC[C@]23CCC(=O)NCCN2CCOCC2)CC1	inactive	
O=c1n(-c2ccc(F)cc2F)nc2n1CCN(Cc1ccc(F)cc1)C2	inconclusive: 7.94 µM [inhibitor, full curve]	
COc1cc(NC(=O)C2c3ccccc3Oc3ccccc32)c(OC)cc1Cl	inactive	
CC1=NN(c2ccc(C(=O)O)cc2)C(=O)/C1=C\c1ccc(OC(=O)c2cccs2)cc1	inconclusive: 50.1 µM [inhibitor, partial curve, poor fit]	
COc1ccc(-n2nnnc2SCc2cc(=O)oc3cc(C)ccc23)cc1	inconclusive: 79.4 µM [inhibitor, partial curve, poor fit]	
Cn1nc(C(=O)Nc2cccc(C(F)(F)F)c2)c2ccccc2c1=O	inactive	
O=C1CCCc2cc(S(=O)(=O)N3CCC(C(=O)N4CCOCC4)CC3)ccc2N1	inactive	
CC(=O)c1ccc(NC(=O)C(C)Oc2ccc(N(C)S(=O)(=O)c3ccc(C)cc3)cc2)cc1 (stereo not given)	inconclusive: 31.6 µM [inhibitor, partial curve, poor fit]	
C[C@@H]1C[C@H]2[C@@H]3C[C@H](F)C4=CC(=O)C=C[C@]4(C)[C@@]3(F)[C@@H](O)C[C@]2(C)[C@@]1(O)C(=O)COC(=O)C(C)(C)C	inactive	
COc1ccc(CC(=O)OCC(=O)NCc2ccc3c(c2)OCO3)cc1OC	inconclusive: 35.5 µM [inhibitor, partial curve, poor fit]	
O=Cc1c(-[n+]2ccccc2)nc([O-])n1-c1ccccc1	inconclusive: 56.2 µM [inhibitor, partial curve, poor fit]	
CN1C(=O)c2cccc(NC(=O)C3CCCCC3)c2C1=O	inactive	
O=C(NC1CCN(C(=O)NCc2ccccc2)CC1)c1ccc(F)cc1	inactive	
O=C(NCCc1ccccc1)C1CCN(S(=O)(=O)c2ccc(-c3nn[nH]n3)cc2)CC1	inconclusive: 31.6 µM [inhibitor, partial curve, poor fit]	
Cc1ccc(-n2nnnc2-c2cnoc2-c2cccc(F)c2)cc1	inconclusive: 35.5 µM [inhibitor, single point]	
COc1cc(CNc2ccc(N3CCN(C(C)=O)CC3)cc2)ccc1OCc1ccccc1	inconclusive: 39.8 µM [inhibitor, partial curve]	
CC(C)C(C(=O)Nc1nc2ccc(S(C)(=O)=O)cc2s1)c1ccc(Cl)cc1 (stereo not given)	inconclusive: 17.8 µM [inhibitor, full curve, poor fit]	
NC(=O)CC(NC(=O)c1cccc(Br)c1)c1ccc(NC2CCCCCCCCCCC2)c([N+](=O)[O-])c1 (stereo not given)	inactive	

SMILES	Potency	activity change, negative = inhibition
CCC[C@H]1[C@@H](NS(=O)(=O)c2ccc([N+](=O)[O-])cc2[N+](=O)[O-])CC[C@@]23CCCN2C(=O)CCC[C@@H]13	inconclusive: 89.1 µM [inhibitor, single point]	
CN(C)S(=O)(=O)Oc1ccc(C(=O)Nc2cccc(C(F)(F)F)c2)cc1	inactive	
CCc1ccc(C(=O)C(C#N)C(=O)NCc2ccccc2)cc1 (stereo not given)	inconclusive: 6.31 µM [inhibitor, full curve, poor fit]	
O=C(O)C1CCCCC1C(=O)Nc1nc(-c2ccc(Cl)s2)cs1 (stereo not given)	inconclusive: 35.5 µM [inhibitor, partial curve]	
COc1ccc(Cl)cc1-c1n[nH]c(=S)n1C	inconclusive: 126 µM [inhibitor, single point]	
O=c1c(Cl)cc(Cl)nn1-c1ccccc1	inactive	
Nc1nccnc1C(=O)Nc1ccc(OCc2ccccc2)cc1	inactive	
Cc1ccc(C)c(NC(=O)C2CCCN(S(=O)(=O)c3c(C)noc3/C=C/N(C)C)C2)c1 (stereo not given)	inconclusive: 141 µM [inhibitor, partial curve, poor fit]	
CC1CCN(c2c(NCC3CCC(C(=O)NCCc4ccc(Cl)cc4)CC3)c(=O)c2=O)CC1 (stereo not given)	inactive	
CCOc1cc(CNCc2ccncc2)cc(Br)c1OCc1ccccc1F	inconclusive: 44.7 µM [inhibitor, partial curve, poor fit]	
CCOc1ccc(N2CC(c3nc(-c4cc(OC)c(OC)c(OC)c4)no3)CC2=O)cc1 (stereo not given)	inconclusive: 112 µM [inhibitor, partial curve, poor fit]	
CC(=O)N1CCCN(CC[C@H]2CN(C(=O)c3ccnc(Cl)c3)CC[C@H]2CC(=O)O)CC1	inactive	
CCOC(=O)C1CCCN(S(=O)(=O)c2ccc(S(N)(=O)=O)cc2)C1 (stereo not given)	inactive	
Cn1c(=O)oc2cc(S(=O)(=O)CCC(=O)NCc3ccccc3)ccc21	inconclusive: 50.1 µM [inhibitor, partial curve, poor fit]	
CCCCC1=CC2=C(c3ccco3)C(=O)C(C)(OC(=O)c3ccc(OC)cc3)C(=O)C2=CN1CC1CC1 (stereo not given)	inconclusive: 39.8 µM [inhibitor, partial curve, poor fit]	
O=C(c1cnccn1)N1CCC2(CCCN(Cc3ccccc3)C2)CC1	inconclusive: 25.1 µM [inhibitor, single point]	
CCCCNc1nccnc1-c1cccc(C=O)c1	inconclusive: 3.98 µM [inhibitor, full curve, poor fit]	
CC(=O)Nc1ccc(S(=O)(=O)N(Cc2cccnc2)Cc2cc3ccccc3[nH]c2=O)cc1	inactive	
O=C(O)/C=C/C(=O)NNc1ncnc2ccccc12	inconclusive: 0.794 µM [inhibitor, partial curve, poor fit]	
O=C(CS(=O)(=O)Cc1coc(-c2ccccc2)n1)N1CCCCC1	inactive	
CC(C)c1ccc(C(=O)CSc2n[nH]c(-c3ccncc3)n2)cc1	inconclusive: 44.7 µM [inhibitor, partial curve, poor fit]	
COc1ccc(CN2CCN(Cc3cccnc3)CC2)cc1OCc1ccccc1	active: 0.708 µM	

SMILES	Potency	activity change, negative = inhibition
O=C(NC1CCCC1)c1c[nH]c2ccc(S(=O)(=O)Nc3cccc(C(F)(F)F)c3)cc2c1=O	inconclusive: 79.4 µM [inhibitor, partial curve, poor fit]	
O=C(O)C(c1c[nH]c2cc(F)ccc12)N1CCN(CCOc2ccc(Cl)cc2)CC1 (stereo not given)	inconclusive: 39.8 µM [inhibitor, partial curve, poor fit]	
CN(NS(C)(=O)=O)c1c(C#N)c(C(F)(F)F)nn1C	inactive	
COc1cccc2c1C(=O)c1c(O)c3c(c(O)c1C2=O)CC(O)(C(=O)CO)CC3OC1CC(N(C)C)C(O)C(C)O1 (stereo not given)	inactive	
CCC(C)NC(=O)CCc1c(C)nc2c(c(OC)nn2C)c1C (stereo not given)	inactive	
Cc1ccc(NC(=O)CC2=C3CCCCC3N(C)C2=O)cc1 (stereo not given)	inactive	
CC1Sc2ccc(S(=O)(=O)N3CCN(c4ccccc4)CC3)cc2NC1=O (stereo not given)	inactive	
CCC(C)c1ccccc1OCCn1ccnc1 (stereo not given)	inconclusive: 1.78 µM [inhibitor, full curve, poor fit]	
Cc1cc(C(=O)Cn2nc(C(=O)O)c3ccccc3c2=O)c(C)n1CC(F)(F)F	inconclusive: 100 µM [inhibitor, single point]	
CC(Oc1ccc(Br)cc1)c1nc2c3ccccc3nc(=S)n2[nH]1 (stereo not given)	active: 3.55 µM	
COC[C@@H]1CN(C(=O)c2cc(C)nn2C)C[C@H]1c1ccncc1	inactive	
O=C(O)c1ccccc1C(=O)N1Cc2[nH]cnc2C[C@H]1c1nc(-c2ccncc2)no1	inconclusive: 31.6 µM [inhibitor, single point]	
CCN1CCN(S(=O)(=O)c2ccc3c4c(cccc24)C(=O)N3CC)CC1	inconclusive: 89.1 µM [inhibitor, single point]	
CCOC(=O)c1cnc2c(c(C)nn2C)c1Oc1ccc(Cl)cc1	inconclusive: 44.7 µM [inhibitor, partial curve, poor fit]	
O=C1C(CCC(O)c2ccc(F)cc2)C(c2ccc(O)cc2)N1c1ccc(F)cc1 (stereo not given)	inconclusive: 0.109 µM [inhibitor, full curve, poor fit]	
CCOC(=O)CNc1c(-c2ccc(O)cc2)nc2ccc(Cl)cn12		inconclusive: -36.3% [inhibitor]
CC1(C)Cc2cccc(OCC(=O)OCC(=O)Nc3ccccc3)c2O1	inconclusive: 28.2 µM [inhibitor, single point]	
O=C(C1CCC(CNS(=O)(=O)c2ccc(Br)s2)CC1)N1CCN(c2ccccc2)CC1 (stereo not given)	inconclusive: 2.82 µM [inhibitor, full curve, poor fit]	
Cc1ccc2nc(CN(C)C(=O)C3CCC(=O)N(C4CCCCCC4)C3)[nH]c2c1 (stereo not given)	inactive	
NC(Cc1c[nH]c2ccccc12)C(=O)O (stereo not given)	inconclusive: 3.16 µM [inhibitor, full curve, poor fit]	
Cc1ccc(C(=O)N/N=C\c2cccn2C)cn1	inconclusive: 112 µM [inhibitor, single point]	

Taken from above.
Potency, Cc1cc(C(=O)Cn2nc(C(=O)O)c3ccccc3c2=O)c(C)n1CC(F)(F)F is entered as inconclusive: 100 µM [inhibitor, single point]
Potency, O=C(NC1CCCC1)c1c[nH]c2ccc(S(=O)(=O)Nc3cccc(C(F)(F)F)c3)cc2c1=O is entered as inconclusive: 79.4 µM [inhibitor, partial curve, poor fit]
